# From publication PMC9776393
# Chains of the proteins cited; added tags and fusions are not shown. Residues count along the entry.
# UniProt P07288, 25-261: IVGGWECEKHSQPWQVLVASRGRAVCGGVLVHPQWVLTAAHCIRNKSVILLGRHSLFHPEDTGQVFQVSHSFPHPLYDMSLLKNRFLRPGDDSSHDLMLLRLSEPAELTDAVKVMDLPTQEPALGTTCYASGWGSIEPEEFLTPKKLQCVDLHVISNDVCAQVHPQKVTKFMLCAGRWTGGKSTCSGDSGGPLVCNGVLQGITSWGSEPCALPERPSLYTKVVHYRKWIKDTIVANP
# UniProt P02769, 25-607: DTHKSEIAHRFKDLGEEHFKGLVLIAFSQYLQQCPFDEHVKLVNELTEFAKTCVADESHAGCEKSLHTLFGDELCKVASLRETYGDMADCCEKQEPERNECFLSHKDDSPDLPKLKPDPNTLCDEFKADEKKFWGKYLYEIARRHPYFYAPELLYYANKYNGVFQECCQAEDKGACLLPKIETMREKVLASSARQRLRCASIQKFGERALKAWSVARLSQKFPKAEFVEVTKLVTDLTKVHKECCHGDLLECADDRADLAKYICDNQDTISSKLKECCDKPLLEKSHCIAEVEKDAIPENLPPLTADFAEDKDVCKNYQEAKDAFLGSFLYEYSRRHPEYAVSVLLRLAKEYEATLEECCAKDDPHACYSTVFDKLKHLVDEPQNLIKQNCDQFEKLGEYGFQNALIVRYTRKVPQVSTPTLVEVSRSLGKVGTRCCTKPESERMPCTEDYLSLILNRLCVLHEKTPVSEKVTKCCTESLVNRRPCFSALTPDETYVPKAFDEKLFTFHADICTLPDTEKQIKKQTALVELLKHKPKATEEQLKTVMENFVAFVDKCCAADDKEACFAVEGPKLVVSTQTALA
# No signal at the amounts used counts as a negative. For part of these data: At least one verdict was read from the data and is not stated in words by the source.
# Experiments:
# Assay in all cases: electrochemical aptasensor (DPV)
# [1] = biological target: prostate-specific antigen (PSA) (human (semen)) (UniProt P07288); settings: control DNA probe, no significant current reduction; 5'-HS-(CH2)6 thiol; PBS pH 7.2, [Fe(CN)6]3-/4- redox probe, 5 min binding; aptamer heated to 95 C and cooled, immobilized at room temperature with MgCl2 and NaCl; commercial protein; single-stranded DNA
# [2] = biological target: bovine serum albumin (BSA) (bovine) (UniProt P02769); settings: MCH-blocked electrode, no significant current reduction; 5'-HS-(CH2)6 thiol; PBS pH 7.2, [Fe(CN)6]3-/4- redox probe, 5 min binding; aptamer heated to 95 C and cooled, immobilized at room temperature with MgCl2 and NaCl; single-stranded DNA
# [3] = biological target: human serum albumin (HSA) (human) (UniProt P02768); settings: MCH-blocked electrode, no significant current reduction; 5'-HS-(CH2)6 thiol; PBS pH 7.2, [Fe(CN)6]3-/4- redox probe, 5 min binding; aptamer heated to 95 C and cooled, immobilized at room temperature with MgCl2 and NaCl; commercial protein; single-stranded DNA
sequence,measurement,setting,value
AAAAATTAATTTCGAGCGGTAGTTTATCGAAA [control DNA probe],binding result,[1],no binding
TTTTTAATTAAAGCTCGCCATCAAATAGCTTT [PSA aptamer],binding result,[2],no binding
same,binding result,[3],no binding
